Assay results taken from patent publication US8129340B2, “Inhibitors of protein phosphatase 1, GADD34 and protein phosphatase 1/GADD34 complex, preparation and uses thereof” (Institut Gustave Roussy, priority 2006, dated 2012).
For at least one compound, name, drawing or mass did not settle the structure.

System: CT26 tumour cells
Assay: Anti-tumour vaccination: dying treated CT26 cells injected in one flank, later challenge with live tumour cells
Assay type: in vivo, BALB/c mice
Details: dying CT26 cells treated with agent injected into one flank, live tumour cells in opposite flank 8 days later

## C=C(C)[C@@H]1CC[C@]2(C(=O)O)CC[C@]3(C)[C@H](CC[C@@H]4[C@@]5(C)CC[C@H](O)C(C)(C)[C@@H]5CC[C@]43C)[C@@H]12 [betulinic acid]
  immunogenicity of cell death (protection against tumour growth, anti-tumour vaccination): failed to induce immunogenic apoptosis
